# Data as given in PubChem BioAssay (NCATS).
# The chains behind the UniProt entries cited, without tags or fusion partners. Where a name states a change or a piece, a line headed by the entry shows the natural chain unless it says otherwise.
# UniProt P10275: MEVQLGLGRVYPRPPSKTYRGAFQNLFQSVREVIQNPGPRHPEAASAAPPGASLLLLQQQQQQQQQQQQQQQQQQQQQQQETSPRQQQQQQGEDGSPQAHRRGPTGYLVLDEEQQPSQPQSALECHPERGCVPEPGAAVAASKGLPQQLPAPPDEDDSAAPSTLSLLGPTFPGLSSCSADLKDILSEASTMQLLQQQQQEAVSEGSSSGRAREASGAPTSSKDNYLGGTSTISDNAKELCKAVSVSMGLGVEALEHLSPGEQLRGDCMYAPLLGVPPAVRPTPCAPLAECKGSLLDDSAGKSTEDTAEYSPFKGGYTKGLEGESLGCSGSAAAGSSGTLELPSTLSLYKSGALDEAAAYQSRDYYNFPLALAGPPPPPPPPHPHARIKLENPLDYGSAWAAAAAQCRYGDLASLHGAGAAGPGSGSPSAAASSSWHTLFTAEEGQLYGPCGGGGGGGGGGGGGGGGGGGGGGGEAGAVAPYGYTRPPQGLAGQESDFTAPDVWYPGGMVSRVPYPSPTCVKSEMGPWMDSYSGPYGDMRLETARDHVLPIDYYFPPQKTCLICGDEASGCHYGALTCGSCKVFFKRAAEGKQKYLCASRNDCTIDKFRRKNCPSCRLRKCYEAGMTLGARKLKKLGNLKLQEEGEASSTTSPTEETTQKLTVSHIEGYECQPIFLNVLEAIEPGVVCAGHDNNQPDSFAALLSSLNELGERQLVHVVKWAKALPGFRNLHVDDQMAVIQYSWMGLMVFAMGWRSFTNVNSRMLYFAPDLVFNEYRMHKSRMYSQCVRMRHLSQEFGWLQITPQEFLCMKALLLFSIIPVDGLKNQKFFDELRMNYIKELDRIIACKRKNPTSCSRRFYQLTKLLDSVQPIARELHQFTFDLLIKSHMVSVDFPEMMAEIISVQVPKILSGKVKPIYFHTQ
# UniProt P37231: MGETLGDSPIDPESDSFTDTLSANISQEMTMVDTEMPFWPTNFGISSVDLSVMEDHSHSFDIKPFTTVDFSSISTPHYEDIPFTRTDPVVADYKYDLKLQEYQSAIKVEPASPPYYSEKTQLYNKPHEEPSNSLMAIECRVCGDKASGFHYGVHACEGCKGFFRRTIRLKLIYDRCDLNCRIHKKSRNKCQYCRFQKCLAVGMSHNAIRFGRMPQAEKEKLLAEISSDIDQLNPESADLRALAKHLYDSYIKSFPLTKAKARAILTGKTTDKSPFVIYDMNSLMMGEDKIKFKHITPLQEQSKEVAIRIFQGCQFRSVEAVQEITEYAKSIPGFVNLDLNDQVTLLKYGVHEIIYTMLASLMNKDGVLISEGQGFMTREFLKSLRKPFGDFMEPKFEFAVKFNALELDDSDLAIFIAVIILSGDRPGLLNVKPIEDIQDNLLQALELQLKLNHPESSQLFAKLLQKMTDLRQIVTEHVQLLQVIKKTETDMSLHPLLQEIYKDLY
# The inconclusive results got no clear call from the source; some entries with a clear call stand among them for comparison. For some of these results: Where the call is inconclusive, the potency comes from a doubtful curve fit. Calls of active or inactive are those of the source. Unless noted, calls come from the whole dose curve; as a rule, active = well fitted curve in the direction sought with a large enough effect; inconclusive = small, poorly fitted or top-dose-only effect, or another doubt; inactive = no such curve, though single readings can be large; an effect the other way counts as inactive or inconclusive.
# Tests used:
# [1] = Counterscreen for APE1 Inhibitors: Fluorescent Dye Displacement Assay (AID 2564); conditions: DNA fluorescent dye displacement counterscreen, fluorescence; at 57.1 µM (top of the series);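 note: loss of thiazole orange fluorescence as the dye is displaced from duplex DNA; 0% = ThO with dsDNA and no compound and -100% = ThO without dsDNA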
# Outline: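 Thiazole Orange (250 nM) bound to 50 nM TAMRA-labelled dsDNA with tetrahydrofuran abasic site; displacement by DNA-binding compounds lowers fluorescence. Buffer 50 mM Tris-HCl pH 7.5, 50 mM NaCl, 2 mM MgCl2, 0.01% Tween-20; endpoint read at 480/540 nm.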
# [2] = molecular target: Androgen receptor (Homo sapiens) (UniProt P10275); assay: qHTS assay for small molecule agonists of androgen receptor signaling (AID 588515; active = well fitted curve in the direction sought with a large enough effect in the signal ratio, with a control signal flat; inconclusive = small, poorly fitted or top-dose-only effect, or effect the other way, or a change in a side signal; inactive = no such curve, though single readings can be large or run the other way; the % refers to the signal ratio; note: % is set by controls: 0 for no effect and ±100 for the full control effect); conditions: AR-UAS-bla HEK293, beta-lactamase ratio, agonist 16 h; activation: hits give high values
# Outline: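 EC50 and efficacy came from Hill fits of titrations (up to 92 uM) normalized to 30 nM R1881 as 100% and DMSO as 0%. Compound exposure was 16 h at 37 C on AR-UAS-bla HEK293 cells, with a 405/460/530 nm CCF4 fluorescence read.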
# [3] = molecular target: Androgen receptor (Homo sapiens) (UniProt P10275); assay: qHTS assay for small molecule antagonists of androgen receptor signaling (AID 588516; active = well fitted curve in the direction sought with a large enough effect in the signal ratio, with a control signal flat, not every such curve was filed as active; inconclusive = small, poorly fitted or top-dose-only effect, or effect the other way, or a change in a side signal; inactive = no such curve, though single readings can be large or run the other way; the % refers to the signal ratio; note: % is set by controls: 0 for no effect and ±100 for the full control effect); conditions: AR-UAS-bla HEK293, beta-lactamase ratio, antagonist mode, 16 h; activity change, negative = inhibition: at 76.8 µM (top of the series)
# Outline: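 Cells were plated and incubated 5 h, compounds added in titration, then R1881 (10 nM final) as agonist. After 16 h at 37 C, CCF4 substrate was loaded for 2 h at room temperature and fluorescence measured.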
# [4] = molecular target: Peroxisome proliferator-activated receptor gamma (Homo sapiens) (UniProt P37231); assay: qHTS assay for small molecule agonists of peroxisome proliferator-activated receptor gamma signaling (AID 588536; active = well fitted curve in the direction sought with a large enough effect in the signal ratio, with a control signal flat, not every such curve was filed as active; inconclusive = small, poorly fitted or top-dose-only effect, or effect the other way, or a change in a side signal; inactive = no such curve, though single readings can be large or run the other way; the % refers to the signal ratio;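 note: 0% = DMSO basal wells and 100% = rosiglitazone at 2 µM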); conditions: HEK293 PPARg-UAS-bla, beta-lactamase ratio, 16 h; activation: at 76.7 µM (top of the series), percent of rosiglitazone response, DMSO as zero
# Outline: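 GeneBLAzer PPAR-gamma-UAS-bla HEK293 cells in 1% charcoal/dextran-treated FBS medium were treated 16 h at 37 C with compounds. Beta-lactamase activity was read by CCF4 ratio (460/530 nm). Response was normalized to 2 uM rosiglitazone (100%) and DMSO, then Hill-fitted for EC50 and efficacy.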
# [5] = molecular target: Peroxisome proliferator-activated receptor gamma (Homo sapiens) (UniProt P37231); assay: qHTS assay for small molecule antagonists of peroxisome proliferator-activated receptor gamma signaling (AID 588537; active = well fitted inhibition curve with a large enough effect in the signal ratio, with a control signal flat, not every such curve was filed as active; inconclusive = small, poorly fitted or top-dose-only effect, or effect the other way, or a change in a side signal; the % refers to the signal ratio;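 note: reporter cells co-stimulated with 50 nM rosiglitazone agonist during compound treatment; % of control where 0% means no effect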); conditions: HEK293 PPARg-UAS-bla, beta-lactamase ratio, antagonist mode; activity, negative = inhibition: at 76.8 µM (top of the series)
# Outline: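 Inhibitors of agonist-stimulated UAS-bla reporter activity were sought in HEK293 cells; rosiglitazone (50 nM) defined full signal and DMSO baseline. Curves fitted to Hill model gave IC50 and efficacy.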
# [6] = qHTS assay for small molecule agonists of the antioxidant response element (ARE) signaling pathway (AID 651741; active = well fitted activation curve with a large enough effect in the signal ratio; inconclusive = small, poorly fitted or top-dose-only effect, or effect the other way, or a change in a side signal; the % refers to the signal ratio; note: potency is the fitted concentration of half-maximal effect); conditions: HepG2 ARE-bla reporter, beta-lactamase FRET ratio, 16 h; activation: at 96 µM (top of the series)
# Outline: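 Seeding 2,000 ARE-bla HepG2 cells per well preceded a 5 h incubation at 37 C/5% CO2 and a 16 h compound exposure at 37 C. Beta-lactamase reporter activity was then quantified by fluorescence after 2 h with LiveBLAzer B/G FRET substrate.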
# [7] = qHTS assay for small molecule agonists of the antioxidant response element (ARE) signaling pathway measured by Nrf2-dependant transcriptional activity (AID 720636; active = well fitted curve in the direction sought with a large enough effect in the repeat runs; inconclusive = weak or mixed curves; inactive = no such curve, though single readings can be large; an effect the other way counts as inactive or inconclusive; note: potency is the fitted concentration of half-maximal effect)
# Outline: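 Nrf2-dependent transcription is measured in ARE-luc HepG2 cells: compound is applied for 16 hr at 37 C after a 6 hr attachment period, and luciferase activity is quantified by luminescence using ONE-Glo.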
# [8] = qHTS of pediatric cancer cell lines to identify multiple opportunities for drug repurposing: Primary screen for TC32 cells (AID 1347089); note: % is set by controls: 0 for no effect and ±100 for the full control effect; nearly all actives have a fitted effect of over 60% in size
# Outline: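 Measured quantity: luminescence from CellTiter-Glo, reflecting metabolically active TC32 cells following 48 h of compound. Curves came straight from multi-point titrations, with 8 or 11 points in primary and 11 in confirmatory screening.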
# [9] = qHTS of pediatric cancer cell lines to identify multiple opportunities for drug repurposing: Primary screen for BT-37 cells (AID 1347094); note: potency is the fitted concentration of half-maximal effect
# Outline: (§1)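 Readout: CellTiter-Glo luminescence, 48 h treatment. Controls DMSO (neutral) and bortezomib 2.3 µM final (positive). Potency and efficacy taken from primary-screen concentration-response curves.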
# [10] = qHTS of pediatric cancer cell lines to identify multiple opportunities for drug repurposing: Primary screen for SK-N-SH cells (AID 1347098); note: potency is the fitted concentration of half-maximal effect; nearly all actives have a fitted effect of over 65% in size
# Outline: (§2)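 Cells (500-1,000/well) rested 5 h, then received compounds for 48 h; metabolically active cells were measured by CellTiter-Glo luminescence. Final concentrations spanned up to 46 µM (MIPE, 11-point) or 0.59 nM-46 µM (NPC, 8-point) in primary screens, 11-point in follow-ups.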
# [11] = qHTS of pediatric cancer cell lines to identify multiple opportunities for drug repurposing: Primary screen for NB1643 cells (AID 1347099);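 note: plate controls were DMSO neutral control for no effect and bortezomib positive control for full effect; nearly all actives have a fitted effect of over 50% in size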
# Outline: as §1
# [12] = qHTS of pediatric cancer cell lines to identify multiple opportunities for drug repurposing: Primary screen for BT-12 cells (AID 1347101);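 note: plate controls were DMSO for no effect and bortezomib positive control for full effect; nearly all actives have a fitted effect of over 25% in size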
# Outline: as §2
# [13] = qHTS of pediatric cancer cell lines to identify multiple opportunities for drug repurposing: Primary screen for Rh18 cells (AID 1347102); note: % is set by controls: 0 for no effect and ±100 for the full control effect; nearly all actives have a fitted effect of over 65% in size
# Outline: as §2
# [14] = qHTS of pediatric cancer cell lines to identify multiple opportunities for drug repurposing: Confirmatory screen for NB1643 cells (AID 1347109); note: potency is the fitted concentration of half-maximal effect; nearly all actives have a fitted effect of over 45% in size
# Outline: as §2
# [15] = qHTS of pediatric cancer cell lines to identify multiple opportunities for drug repurposing: Confirmatory screen for SK-N-MC cells (AID 1347111);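 note: potency is the fitted concentration of half-maximal effect; cells exposed to compound for 48 h before the readout; nearly all actives have a fitted effect of over 70% in size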
# Outline: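 Seed 500-1,000 cells/well; rest 5 h at 37 degrees C. Pin-transfer compounds, 11-point titration. Incubate 48 h. Add CellTiter-Glo, 15 min RT, read luminescence.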
# [16] = qHTS of pediatric cancer cell lines to identify multiple opportunities for drug repurposing: Confirmatory screen for BT-12 cells (AID 1347112);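 note: potency is the fitted concentration of half-maximal effect; viability read after 48 h of compound exposure; nearly all actives have a fitted effect of over 55% in size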
# Outline: as §2
# [17] = qHTS of pediatric cancer cell lines to identify multiple opportunities for drug repurposing: Confirmatory screen for LAN-5 cells (AID 1347113); note: potency is the fitted concentration of half-maximal effect; nearly all actives have a fitted effect of over 65% in size
# Outline: as §2
# [18] = qHTS of pediatric cancer cell lines to identify multiple opportunities for drug repurposing: Confirmatory screen for DAOY cells (AID 1347114); note: % is set by controls: 0 for no effect and ±100 for the full control effect; nearly all actives have a fitted effect of over 65% in size
# Outline: (§3)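 Viability measured as metabolically active cells via CellTiter-Glo luminescence following 48 hours of compound exposure, 11-point dilutions in confirmatory testing. 500-1,000 cells/well plated 5 hours before dosing; controls were DMSO and 2.3 µM bortezomib.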
# [19] = qHTS of pediatric cancer cell lines to identify multiple opportunities for drug repurposing: Confirmatory screen for NB-EBc1 cells (AID 1347115); conditions: NB-EBc1 neuroblastoma cells, viability (cytotoxicity); activity change, negative = cytotoxic: at 45.9 µM (top of the series);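 note: potency is the fitted concentration of half-maximal effect; cells exposed to compound for 48 h before the viability read; nearly all actives have a fitted effect of over 45% in size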
# Outline: as §2
# [20] = qHTS of pediatric cancer cell lines to identify multiple opportunities for drug repurposing: Confirmatory screen for SJ-GBM2 cells (AID 1347116); note: potency is the fitted concentration of half-maximal effect; nearly all actives have a fitted effect of over 60% in size
# Outline: as §3
# [21] = qHTS of pediatric cancer cell lines to identify multiple opportunities for drug repurposing: Confirmatory screen for BT-37 cells (AID 1347117); note: potency is the fitted concentration of half-maximal effect; nearly all actives have a fitted effect of over 55% in size
# Outline: as §2
# [22] = qHTS of pediatric cancer cell lines to identify multiple opportunities for drug repurposing: Confirmatory screen for TC32 cells (AID 1347118)
# Outline: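 TC32 cells, 500-1,000/well in growth medium, compound-treated 48 h at 37 °C; viability from CellTiter-Glo luminescence. Primary screen: MIPE 11-point (0.78 nM–46 µM final), NPC 8-point (0.59 nM–46 µM final); confirmatory at 11-point dilutions.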
# [23] = qHTS of pediatric cancer cell lines to identify multiple opportunities for drug repurposing: Confirmatory screen for MG 63 (6-TG R) cells (AID 1347119); note: potency is the fitted concentration of half-maximal effect; nearly all actives have a fitted effect of over 55% in size
# Outline: as §2
# [24] = qHTS of pediatric cancer cell lines to identify multiple opportunities for drug repurposing: Confirmatory screen for U-2 OS cells (AID 1347122)
# Outline: as §2
# [25] = qHTS of pediatric cancer cell lines to identify multiple opportunities for drug repurposing: Confirmatory screen for Rh41 cells (AID 1347123);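 note: potency is the fitted concentration of half-maximal effect; 48 h compound exposure; nearly all actives have a fitted effect of over 60% in size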
# Outline: as §2
# [26] = qHTS of pediatric cancer cell lines to identify multiple opportunities for drug repurposing: Confirmatory screen for Rh18 cells (AID 1347125); note: potency is the fitted concentration of half-maximal effect; nearly all actives have a fitted effect of over 55% in size
# Outline: as §2
# [27] = qHTS of pediatric cancer cell lines to identify multiple opportunities for drug repurposing: Confirmatory screen for Rh30 cells (AID 1347126)
# Outline: as §2
# [28] = qHTS of pediatric cancer cell lines to identify multiple opportunities for drug repurposing: Confirmatory screen for Saos-2 cells (AID 1347127); note: potency is the fitted concentration of half-maximal effect; nearly all actives have a fitted effect of over 60% in size
# Outline: as §2
# [29] = test system: Zika virus NS2B-NS3 protease; assay: Primary screen GU AMC qHTS for Zika virus inhibitors (AID 1347154);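 note: 0% = no-inhibitor control and -100% = no-enzyme control; nearly all actives have a fitted effect of over 70% in size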
# Outline: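 Fluorogenic AMC-substrate cleavage by noncovalent NS2B-NS3 protease complex (25 nM, pH 8.0 Tris buffer with Tween 20) followed for 15 minutes at room temperature (~20% conversion). Percent inhibition from ex340/em450 signal change, fitted by 4-parameter Hill equation.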
# [30] = Primary qHTS for inhibitors of nuclear receptor binding SET domain protein 2 (NSD2) in an isogenic RCH-ACV NSD2 p.E1099K mutant (9B) (AID 1645876); note: % is set by controls: 0 for no effect and ±100 for the full control effect; nearly all actives have a fitted effect of over 70% in size
# [31] = test system: 3D7; assay: qHTS profiling for inhibitors of Plasmodium falciparum proliferation (AID 504749); conditions: P. falciparum in erythrocytes, SYBR Green DNA, 72 h; series mostly up to 28.7 µM
# Outline: (§4)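 Three-day growth assay of blood-stage parasites in erythrocytes (0.3% parasitemia, 2.5% hematocrit) at 37 C, 5% CO2, quantified by SYBR Green DNA staining after overnight detergent lysis.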
# [32] = test system: 7G8; assay: as above; conditions: P. falciparum in erythrocytes, SYBR Green DNA, 72 h; series mostly up to 28.7 µM
# Outline: as §4
# [33] = test system: AA1029; assay: as above; conditions: P. falciparum in erythrocytes, SYBR Green DNA, 72 h; series mostly up to 28.7 µM
# Outline: as §4
# [34] = test system: AS120; assay: as above; conditions: P. falciparum in erythrocytes, SYBR Green DNA, 72 h; series mostly up to 28.7 µM
# Outline: as §4
compound,measurement,setting,value
CN(C)C(=O)Nc1ccc(Cl)c(Cl)c1,"activity change, negative = inhibition",[1],inactive: -2.55%
same,activation,[2],inactive: 0.958%
same,Potency,[3],inactive
same,Potency,[4],inactive
same,Potency,[5],inactive
same,Potency,[6],"inconclusive: 68.6 µM [activator, single point]"
same,Potency,[7],"inconclusive: 68.6 µM [activator, partial curve, poor fit]"
same,Potency,[8],inactive
same,Potency,[9],"inconclusive: 0.347 µM [cytotoxic, full curve]"
same,Potency,[10],"inconclusive: 0.0386 µM [cytotoxic, full curve, poor fit]"
same,Potency,[11],inactive
same,Potency,[12],inactive
same,Potency,[13],inactive
same,Potency,[14],"inconclusive: 26.1 µM [cytotoxic, single point]"
same,Potency,[15],"inconclusive: 36.9 µM [cytotoxic, single point]"
same,Potency,[16],"inconclusive: 36.9 µM [cytotoxic, single point]"
same,Potency,[17],"inconclusive: 32.9 µM [cytotoxic, single point]"
same,Potency,[18],inactive
same,Potency,[19],active: 23.3 µM
same,Potency,[20],"inconclusive: 32.9 µM [cytotoxic, single point]"
same,Potency,[21],"inconclusive: 29.3 µM [cytotoxic, single point]"
same,Potency,[22],"inconclusive: 23.3 µM [cytotoxic, single point]"
same,Potency,[23],"inconclusive: 36.9 µM [cytotoxic, single point]"
same,Potency,[24],"inconclusive: 32.9 µM [cytotoxic, single point]"
same,Potency,[25],"inconclusive: 36.9 µM [cytotoxic, single point]"
same,Potency,[26],"inconclusive: 29.3 µM [cytotoxic, single point]"
same,Potency,[27],"inconclusive: 32.9 µM [cytotoxic, single point]"
same,Potency,[28],"inconclusive: 32.9 µM [cytotoxic, single point]"
same,Potency,[29],inactive
same,Potency,[30],inactive
same,Potency,[31],"inconclusive: 7.94 µM [inhibitor, partial curve, poor fit]"
same,Potency,[32],"inconclusive: 11.2 µM [inhibitor, partial curve]"
same,Potency,[33],"inconclusive: 12.6 µM [inhibitor, partial curve]"
same,Potency,[34],"inconclusive: 11.2 µM [inhibitor, partial curve]"
